Binding data for one molecule are collected here from patent publication US20040043929A1.

The target in assay [1] is voltage gated potassium channel modulatory subunit (human). The assay can be described thus: yeast two-hybrid (PathCalling, Gal4-BD / Gal4-AD fusions).
Assay [2] has the same target. The assay can be described thus: yeast two-hybrid (PathCalling).

Results are given in words; binding and its absence hold for the method and conditions named. Binding calls can cover weak binding; strength is not graded here.

B1: Calpain 3 (NOV23b, CG57509-02) (enzyme)
chain: MPTVISASVAPRTAAEPRSPGPVPHPAQSKATEAGGGNPSGIYSAIISRNFPIIGVKEKTFEQLHKKCLEKKVLYVDPEFPPDETSLFYSQKFPIQFVWKRPPEICENPRFIIDGANRTDICQGELGDCWFLAAIACLTLNQHLLFRVIPHDQSFIENYAGIFHFQFWRYGEWVDVVIDDCLPTYNNQLVFTKSNHRNEFWSALLEKAYAKLHGSYEALKGGNTTEAMEDFTGGVAEFFEIRDAPSDMYKIMKKAIERGSLMGCSIDDGTNMTYGTSPSGLNMGELIARMVRNMDNSLLQDSDLDPRGSDERPTRTIIPVQYETRMACGLVRGHAYSVTGLDEVPFKGEKVKLVRLRNPWGQVEWNGSWSDRWKDWSFVDKDEKARLQHQVTEDGEFWMSYEDFIYHFTKLEICNLTADALQSDKLQTWTVSVNEGRWVRGCSAGGCRNFPDTFWTNPQYRLKLLEEDDDPDDSEVICSFLVALMQKNRRKDRKLGASLFTIGFAIYEVPKEMHGNKQHLQKDFFLYNASKARSKTYINMREVSQRFRLPPSEYVIVPSTYEPHQEGEFILRVFSEKRNLSEEVENTISVDRPVKKKKTKPIIFVSDRANSNKELGVDQESEEGKGKTSPDKQKQSPQPQPGSSDQESEEQQQFRNIFKQIAGDDMEICADELKKVLNTVVNKHKDLKTHGFTLESCRSMIALMDTDGSGKLNLQEFHHLWNKIKAWQKIFKHYDTDQSGTINSYEMRNAVNDAGFHLNNQLYDIITMRYADKHMNIDFDSFICCFVRLEGMFRAFHAFDKDGDGIIKLNVLEWLQLTMYA
As for B1, the binding entry in assay [1] and in assay [2] was “binds” in each case.
